Experimental data: patent US20060078977A1
Results are given in words; binding and its absence hold for the method and conditions named. Some entries that bind do so weakly or less than the wild type.

Molecular target: Enterococcus faecalis ribose-phosphate pyrophosphokinase (PRPP synthetase), polypeptide having SEQ ID NO: 4, His tagged at the N-terminus, as crystallized (Enterococcus faecalis) (UniProt Q82ZA5)
Assay: X-ray crystal structure, self-association of subunits in the homohexamer

Enterococcus faecalis ribose-phosphate pyrophosphokinase (PRPP synthetase), polypeptide having SEQ ID NO: 4, His tagged at the N-terminus, as crystallized (from UniProt Q82ZA5 1-323) (enzyme)
binding: binds
